Results are given in words; binding and its absence hold for the method and conditions named. Some entries that bind do so weakly or less than the wild type.

Sequences of proteins named here, by UniProt entry; tags and fusion partners are left off. A change or cut given only in a name is not applied to a line headed by its entry. Residues count along the entry.
UniProt P29317, residues 24-537: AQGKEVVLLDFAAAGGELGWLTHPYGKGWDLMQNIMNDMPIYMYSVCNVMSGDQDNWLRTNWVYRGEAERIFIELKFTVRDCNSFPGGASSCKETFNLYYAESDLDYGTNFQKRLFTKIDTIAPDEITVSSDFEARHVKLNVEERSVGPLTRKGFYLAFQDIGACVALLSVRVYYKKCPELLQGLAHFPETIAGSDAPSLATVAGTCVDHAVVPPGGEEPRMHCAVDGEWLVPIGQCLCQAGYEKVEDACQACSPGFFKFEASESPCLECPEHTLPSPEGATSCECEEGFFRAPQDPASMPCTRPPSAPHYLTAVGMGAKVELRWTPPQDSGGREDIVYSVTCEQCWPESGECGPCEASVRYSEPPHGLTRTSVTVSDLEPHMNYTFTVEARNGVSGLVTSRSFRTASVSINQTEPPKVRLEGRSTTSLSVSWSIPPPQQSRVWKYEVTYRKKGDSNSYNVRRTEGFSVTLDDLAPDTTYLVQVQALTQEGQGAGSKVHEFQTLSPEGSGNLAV
UniProt P20827: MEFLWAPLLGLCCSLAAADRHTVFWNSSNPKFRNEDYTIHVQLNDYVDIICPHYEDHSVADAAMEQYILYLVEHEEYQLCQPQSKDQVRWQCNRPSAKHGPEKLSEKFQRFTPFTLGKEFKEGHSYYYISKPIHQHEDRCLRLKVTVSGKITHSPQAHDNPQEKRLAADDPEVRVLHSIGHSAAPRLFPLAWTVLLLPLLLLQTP

Our source for the binding values is US6479250 (Amgen, dated 2002).

For test [1], the target named is eck receptor extracellular domain (eck-x), soluble, expressed in CHO cells (human) (UniProt P29317). In words: affinity chromatography on immobilized eck-x, SDS-PAGE.
Test [2] has the same target. In words: gel filtration fractions tested by BIAcore on immobilized eck-x. In general terms: Size exclusion chromatography separates by hydrodynamic size, large species first.

As for “eck receptor binding protein (EBP) purified from conditioned medium of HCT-8 or SK-BR-3 cells (from UniProt P20827 19-182) (ligand)”, the binding result in test [1] and in test [2] was “binds” each time.
